Literature values as cited in patent US6242478A, “Five member ring sulfenate esters and thiosulfinate esters” (Wake Forest University, priority 1999, dated 2001).
The name of at least one read-out is uncertain.

Tested on: variety of strains of HIV-1
Settings: depending on strain; read-out: antiviral active concentration against HIV-1 strains; cited from earlier work

SMILES: O=S1(=O)C[C@H](O)[C@H](O)CS1 (relative stereo) [compound 8]
- EC50: 3 to 69 µM
